Patent US20250326807A1, “CALPROTECTIN BINDING PEPTIDES” (Buehlmann Laboratories AG, priority 2022, published 2025)
Results are given in words; binding and its absence hold for the method and conditions named. Some entries that bind do so weakly or less than the wild type. Tags and fused reporters may be left off the sequences shown.

Sequences of proteins named here, by UniProt entry; tags and fusion partners are left off. A change or cut given only in a name is not applied to a line headed by its entry.
UniProt P06702: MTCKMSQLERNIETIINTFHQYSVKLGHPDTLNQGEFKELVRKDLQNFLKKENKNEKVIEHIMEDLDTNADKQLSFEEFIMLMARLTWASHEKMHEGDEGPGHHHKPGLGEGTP
UniProt P05109: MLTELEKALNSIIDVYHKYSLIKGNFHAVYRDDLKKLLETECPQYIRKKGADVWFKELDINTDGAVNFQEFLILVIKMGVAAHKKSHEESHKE

Target: T1, Recombinantly expressed fused calprotectin (His6-linker-S100A9-linker-S100A8), product code B-RCAL, BÜHLMANN Laboratories AG (human) (UniProt P06702+P05109)
T1 sequence: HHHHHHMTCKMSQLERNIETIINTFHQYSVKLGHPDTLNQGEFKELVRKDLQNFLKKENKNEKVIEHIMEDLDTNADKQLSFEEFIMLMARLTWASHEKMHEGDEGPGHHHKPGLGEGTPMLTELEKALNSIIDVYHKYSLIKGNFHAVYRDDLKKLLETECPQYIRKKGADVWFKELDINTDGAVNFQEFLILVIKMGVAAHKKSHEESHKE
Experiment: sandwich ELISA, calprotectin captured by rabbit polyclonal antibody, peptide-biotin with Strep-HRP

binding: binds
Binder: RSPESVAFPMFQSHWYSG (N-terminal biotin (attachment not described)) [Peptide 3 with N-terminal biotinylation]
